{"source": "patent US8716436B2", "about": "(priority 2010, dated 2014)", "assay": "Tolerance: intrathecal cumulative dose-response in tail-flick test before and after 1 week osmotic minipump", "assay_type": "in vivo", "conditions": "rat; for Shift in ED50 (tolerance): after 1 week minipump; for Potency relative to morphine: tail-flick", "note": "Some results were stated once for a whole list of compounds, not compound by compound.", "data": [{"molecule": "NC(=O)[C@@H]1CCC(=O)NCCCC[C@@H](NC(=O)[C@@H](N)Cc2ccc(O)cc2)C(=O)N[C@@H](Cc2c[nH]c3ccccc23)C(=O)N[C@@H](Cc2ccccc2)C(=O)N1", "note": "[Compound 1, Tyr-c[D-Lys-Trp-Phe-Glu]-NH2]", "values": [{"measurement": "Shift in ED50 (tolerance)", "result": "less than 20 fold"}, {"measurement": "Potency relative to morphine", "result": "over 20 fold"}]}, {"molecule": "NC(=O)[C@@H]1CC(=O)NCCCC[C@@H](NC(=O)[C@@H](N)Cc2ccc(O)cc2)C(=O)N[C@@H](Cc2c[nH]c3ccccc23)C(=O)N[C@@H](Cc2ccccc2)C(=O)N1", "note": "[Compound 5, Tyr-c[D-Lys-Trp-Phe-Asp]-NH2]", "values": [{"measurement": "Shift in ED50 (tolerance)", "result": "less than 20 fold"}, {"measurement": "Potency relative to morphine", "result": "over 20 fold"}]}, {"molecule": "NC(=O)[C@@H]1CCCCNC(=O)CC[C@@H](NC(=O)[C@@H](N)Cc2ccc(O)cc2)C(=O)N[C@@H](Cc2ccccc2)C(=O)N[C@@H](Cc2ccccc2)C(=O)N1", "note": "[Compound 2, Tyr-c[D-Glu-Phe-Phe-Lys]-NH2]", "values": [{"measurement": "Potency relative to morphine", "result": "over 20 fold"}]}]}
